Results taken from doi:10.1101/145664.
These are yes or no findings as the source states them, for the method shown. In cells and extracts the contact can be indirect. A result given as binding can be weak or reduced; the word gives no strength.

B1: Sla2 (protein, UniProt P33338 1-968)
chain: MSRIDSDLQKALKKACSVEETAPKRKHVRACIVYTWDHQSSKAVFTTLKTLPLANDEVQLFKMLIVLHKIIQEGHPSALAEAIRDRDWIRSLGRVHSGGSSYSKLIREYVRYLVLKLDFHAHHRGFNNGTFEYEEYVSLVSVSDPDEGYETILDLMSLQDSLDEFSQIIFASIQSERRNTECKISALIPLIAESYGIYKFITSMLRAMHRQLNDAEGDAALQPLKERYELQHARLFEFYADCSSVKYLTTLVTIPKLPVDAPDVFLINDVDESKEIKFKKREPSVTPARTPARTPTPTPPVVAEPAISPRPVSQRTTSTPTGYLQTMPTGATTGMMIPTATGAANAIFPQATAQMQPDFWANQQAQFANEQNRLEQERVQQLQQQQAQQELFQQQLQKAQQDMMNMQLQQQNQHQNDLIALTNQYEKDQALLQQYDQRVQQLESEITTMDSTASKQLANKDEQLTALQDQLDVWERKYESLAKLYSQLRQEHLNLLPRFKKLQLKVNSAQESIQKKEQLEHKLKQKDLQMAELVKDRDRARLELERSINNAEADSAAATAAAETMTQDKMNPILDAILESGINTIQESVYNLDSPLSWSGPLTPPTFLLSLLESTSENATEFATSFNNLIVDGLAHGDQTEVIHCVSDFSTSMATLVTNSKAYAVTTLPQEQSDQILTLVKRCAREAQYFFEDLMSENLNQVGDEEKTDIVINANVDMQEKLQELSLAIEPLLNIQSVKSNKETNPHSELVATADKIVKSSEHLRVDVPKPLLSLALMIIDAVVALVKAAIQCQNEIATTTSIPLNQFYLKNSRWTEGLISAAKAVAGATNVLITTASKLITSEDNENTSPEQFIVASKEVAASTIQLVAASRVKTSIHSKAQDKLEHCSKDVTDACRSLGNHVMGMIEDDHSTSQQQQPLDFTSEHTLKTAEMEQQVEILKLEQSLSNARKRLGEIRRHAYYNQDDD
B2: Abp1 (protein, UniProt P15891 1-592)
chain: MALEPIDYTTHSREIDAEYLKIVRGSDPDTTWLIISPNAKKEYEPESTGSSFHDFLQLFDETKVQYGLARVSPPGSDVEKIIIIGWCPDSAPLKTRASFAANFAAVANNLFKGYHVQVTARDEDDLDENELLMKISNAAGARYSIQTSSKQQGKASTPPVKKSFTPSKSPAPVSKKEPVKTPSPAPAAKISSRVNDNNDDDDWNEPELKERDFDQAPLKPNQSSYKPIGKIDLQKVIAEEKAKEDPRLVQKPTAAGSKIDPSSDIANLKNESKLKRDSEFNSFLGTTKPPSMTESSLKNDDDKVIKGFRNEKSPAQLWAERKAKQNSGNAETKAEAPKPEVPEDEPEGEPDVKDLKSKFEGLAASEKEEEEMENKFAPPPKKSEPTIISPKPFSKPQEPVKAEEAEQPKTDYKKIGNPLPGMHIEADNEEEPEENDDDWDDDEDEAAQPPLPSRNVASGAPVQKEEPEQEEIAPSLPSRNSIPAPKQEEAPEQAPEEEIEEEAEEAAPQLPSRSSAAPPPPPRRATPEKKPKENPWATAEYDYDAAEDNELTFVENDKIINIEFVDDDWWLGELEKDGSKGLFPSNYVSLGN
B3: Ede1 (protein, UniProt P34216 1-1381)
chain: MASITFRTPLSSQEQAFYNQKFHQLDTEDLGVVTGEAVRPLFASSGLPGQLLSQVWATVDIDNKGFLNLNEFSAALRMIAQLQNAPNQPISAALYESTPTQLASFSINQNPAPMQSGSATGNTNNTDIPALSSNDIAKFSQLFDRTAKGAQTVAGDKAKDIFLKARLPNQTLGEIWALCDRDASGVLDKSEFIMAMYLIQLCMSHHPSMNTPPAVLPTQLWDSIRLEPVVVNQPNRTTPLSANSTGVSSLTRHSTISRLSTGAFSNAASDWSLSFEKKQQFDAIFDSLDKQHAGSLSSAVLVPFFLSSRLNQETLATIWDLADIHNNAEFTKLEFAIAMFLIQKKNAGVELPDVIPNELLQSPALGLYPPNPLPQQQSAPQIAIPSRASKPSLQDMPHQVSAPAVNTQPTVPQVLPQNSNNGSLNDLLALNPSFSSPSPTKAQTVVQNNTNNSFSYDNNNGQATLQQQQPQQPPPLTHSSSGLKKFTPTSNFGQSIIKEEPEEQEQLRESSDTFSAQPPPVPKHASSPVKRTASTTLPQVPNFSVFSMPAGAATSAATGAAVGAAVGAAALGASAFSRSSNNAFKNQDLFADGEASAQLSNATTEMANLSNQVNSLSKQASITNDKKSRATQELKRVTEMKNSIQIKLNNLRSTHDQNVKQTEQLEAQVLQVNKENETLAQQLAVSEANYHAAESKLNELTTDLQESQTKNAELKEQITNLNSMTASLQSQLNEKQQQVKQERSMVDVNSKQLELNQVTVANLQKEIDGLGEKISVYLTKQKELNDYQKTVEEQHAQLQAKYQDLSNKDTDLTDREKQLEERNRQIEEQENLYHQHVSKLQEMFDDLSQRKASFEKADQELKERNIEYANNVRELSERQMNLAMGQLPEDAKDIIAKSASNTDTTTKEATSRGNVHEDTVSKFVETTVENSNLNVNRVKDDEEKTERTESDVFDRDVPTLGSQSDSENANTNNGTQSGNETANPNLTETLSDRFDGDLNEYGIPRSQSLTSSVANNAPQSVRDDVELPETLEERDTINNTANRDNTGNLSHIPGEWEATPATASTDVLSNETTEVIEDGSTTKRANSNEDGESVSSIQESPKISAQPKAKTINEEFPPIQELHIDESDSSSSDDDEFEDTREIPSATVKTLQTPYNAQPTSSLEIHTEQVIKYPAPGTSPSHNEGNSKKASTNSILPVKDEFDDEFAGLEQAAVEEDNGADSESEFENVANAGSMEQFETIDHKDLDDELQMNAFTGTLTSSSNPTIPKPQVQQQSTSDPAQVSNDEWDEIFAGFGNSKAEPTKVATPSIPQQPIPLKNDPIVDASLSKGPIVNRGVATTPKSLAVEELSGMGFTEEEAHNALEKCNWDLEAATNFLLDSA
B4: End3 (protein, UniProt P39013 1-349)
chain: MPKLEQFEIKKYWQIFSGLKPIENKVNHDQVLPILYNSKLDSSVLNKIWFLADIDDDDNLDFEEFVICMRLIFDMVNKNISSVPDELPDWLIPGSKVNLIKERKKRKQIENADLPPKKEIKVDWYMSPDDLNQYEKIYNSCAKLTDGTITFNELSTKLSTKFFNISKTDLNKVWSLINPQNLPSIDRDPTFYFIHCLRQRNDLGAEIPASLPNSLAEVCNKKQLSYDLRSSQPPTKRKEEANEVDNLRDNGQNSSSDSSGSNVLSNEDSIKQKYASLTDDQVANMREQLEGLLNYKKSEKTQGGSKLSKRINIRSITDDLDNIEQQVEVLENYLNNKRHELQALQAEIN
B5: Sla1 (protein, UniProt P32790 1-1244)
chain: MTVFLGIYRAVYAYEPQTPEELAIQEDDLLYLLQKSDIDDWWTVKKRVIGSDSEEPVGLVPSTYIEEAPVLKKVRAIYDYEQVQNADEELTFHENDVFDVFDDKDADWLLVKSTVSNEFGFIPGNYVEPENGSTSKQEQAPAAAEAPAATPAAAPASAAVLPTNFLPPPQHNDRARMMQSKEDQAPDEDEEGPPPAMPARPTATTETTDATAAAVRSRTRLSYSDNDNDDEEDDYYYNSNSNNVGNHEYNTEYHSWNVTEIEGRKKKKAKLSIGNNKINFIPQKGTPHEWSIDKLVSYDNEKKHMFLEFVDPYRSLELHTGNTTTCEEIMNIIGEYKGASRDPGLREVEMASKSKKRGIVQYDFMAESQDELTIKSGDKVYILDDKKSKDWWMCQLVDSGKSGLVPAQFIEPVRDKKHTESTASGIIKSIKKNFTKSPSRSRSRSRSKSNANASWKDDELQNDVVGSAAGKRSRKSSLSSHKKNSSATKDFPNPKKSRLWVDRSGTFKVDAEFIGCAKGKIHLHKANGVKIAVAADKLSNEDLAYVEKITGFSLEKFKANDGSSSRGTDSRDSERERRRRLKEQEEKERDRRLKERELYELKKARELLDEERSRLQEKELPPIKPPRPTSTTSVPNTTSVPPAESSNNNNSSNKYDWFEFFLNCGVDVSNCQRYTINFDREQLTEDMMPDINNSMLRTLGLREGDIVRVMKHLDKKFGRENIASIPTNATGNMFSQPDGSLNVATSPETSLPQQLLPQTTSPAQTAPSTSAETDDAWTVKPASKSESNLLSKKSEFTGSMQDLLDLQPLEPKKAAASTPEPNLKDLEPVKTGGTTVPAAPVSSAPVSSAPAPLDPFKTGGNNILPLSTGFVMMPMITGGDMLPMQRTGGFVVPQTTFGMQSQVTGGILPVQKTGNGLIPISNTGGAMMPQTTFGAAATVLPLQKTGGGLIPIATTGGAQFPQTSFNVQGQQQLPTGSILPVQKTANGLISANTGVSMPTVQRTGGTMIPQTSFGVSQQLTGGAMMTQPQNTGSAMMPQTSFNAVPQITGGAMMPQTSFNALPQVTGGAMMPLQRTGGALNTFNTGGAMIPQTSFSSQAQNTGGFRPQSQFGLTLQKTGGIAPLNQNQFTGGAMNTLSTGGVLQQQQPQTMNTFNTGGVMQELQMMTTFNTGGAMQQPQMMNTFNTDGIMQQPQMMNTFNTGGAMQQPQQQALQNQPTGFGFGNGPQQSRQANIFNATASNPFGF
B6: Yap1802 (protein, UniProt P53309 1-568)
chain: MSSLYTKLVKGATKIKMAPPKQKYVDPILSGTSSARGLQEITHALDIRLSDTAWTIVYKALIVLHLMIQQGEKDVTLRHYSHNLDVFQLRKISHTTKWSSNDMRALQRYDEYLKTRCEEYGRLGMDHLRDNYSSLKLGSKNQLSMDEELDHVESLEIQINALIRNKYSVSDLENHLLLYAFQLLVQDLLGLYNALNEGVITLLESFFELSIEHAKRTLDLYKDFVDMTEYVVRYLKIGKAVGLKIPVIKHITTKLINSLEEHLREETKRQRGEPSEPQQDRKPSTAISSTSSHNNNSNDKNKSIAQKKLEQIREQKRLLEQQLQNQQLLISPTVPQDAYNPFGSQQQDLNNDTFSFEPTQPQMTAQVPQPTANPFLIPQQQQQALQLTSASTMPQPSEIQITPNLNNQQTGMYASNLQYTPNFTGSGFGGYTTTENNAIMTGTLDPTKTGSNNPFSLENIAREQQQQNFQNSPNPFTLQQAQTTPILAHSQTGNPFQAQNVVTSPMGTYMTNPVAGQLQYASTGAQQQPQMMQGQQTGYVMVPTAFVPINQQQQQQQHQQENPNLIDI
B7: Lsb3 (protein, UniProt P43603 1-459)
chain: MGINNPIPRSLKSETKKAAKILASFVKPNQVFGADQVIPPDVLKRAKGLAIITILKAGFLFSGRAGSGVIVARLKDGTWSAPSAIAMAGAGAGGMVGIELTDFVFILNTQDAVKSFSEFGTITLGGNVSVSAGPLGRSAEAAASASAGGVAAVFAYSKSKGLFAGVSVEGSAIIERREANRKFYGDNCTAKMILSGRIRPPPAVDPLFRVLESRAFNYRPSNGGRGSFDDDEDDYYDDDDYYNDIPSSFSSTDASSTRPNTRSTRRRAQSGSRYTFDDDDDDDDYGTGYSRNSRLAPTNSGGSGGKLDDPSGASSYYASHRRSGTAQSRARSSRNRWADDEYDDYDDDYESGYRRGNGRDRTKDREVDDLSNRFSKSRISSASTPQTSQGRFTAPTSPSTSSPKAVALYSFAGEESGDLPFRKGDVITILKKSDSQNDWWTGRVNGREGIFPANYVELV
B8: Ysc84 (protein, UniProt P32793 1-468)
chain: MGINNPIPRSLKSETKKAAKVLRSFVKPNQVFGADQVIPPYVLKRAKGLAIITVLKAGFLFSGRAGSGVIVARLKDGTWSAPSAIAMAGAGAGGMVGVELTDFVFILNSEEAVRSFSEFGTITLGGNVSVSAGPLGRSAEAAASASTGGVSAVFAYSKSKGLFAGVSVEGSAILERREANRKFYGDNCTSKMILSGRVKVPPAADPLLRILESRAFNFTRHDHDDNASGDDFYDDGQYSDNTSHYYDDIPDSFDSTDESSTRPNTRSSRRRGMSLGSRSRYDDDYDDDGYGRGRGYGDFDSEDEDYDYGRSPNRNSSRNRGPQIDRGTKPRANTRWEDDLYDRDTEYSRPNHSGRDYDNTRGNRRGYGRERGYSLGHGPTHPSNMSNVDDLSHKMSKTGLGNESTATNSATPTAVALYNFAGEQPGDLAFKKGDVITILKKSDSQNDWWTGRTNGKEGIFPANYVRVS

What follows are binders tested against Sla1 ΔPLD (S. cerevisiae) (assay: split reporter).
In the case of B1, the binding is reported as “binds”.
For B2, the binding was “binds”.
In the case of B3, the binding is reported as “no binding”.
For B4, the binding was “no binding”.
For B5, the binding was “no binding”.
For B6, the binding was “no binding”.
With B7 the binding was “no binding”.
With B8 the binding was “no binding”.
